This note sets out measurements from paper PMC8922672.

Chains of the proteins cited; added tags and fusions are not shown.
UniProt P05412: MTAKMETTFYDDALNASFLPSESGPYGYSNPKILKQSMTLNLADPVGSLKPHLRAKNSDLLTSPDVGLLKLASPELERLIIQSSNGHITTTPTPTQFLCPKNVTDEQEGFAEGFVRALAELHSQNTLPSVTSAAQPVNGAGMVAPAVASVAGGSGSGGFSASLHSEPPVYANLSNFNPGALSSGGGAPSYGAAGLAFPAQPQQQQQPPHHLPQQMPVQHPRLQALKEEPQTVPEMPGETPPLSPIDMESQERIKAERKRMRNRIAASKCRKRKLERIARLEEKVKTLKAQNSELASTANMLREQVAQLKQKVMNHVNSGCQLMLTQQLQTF
UniProt P10070: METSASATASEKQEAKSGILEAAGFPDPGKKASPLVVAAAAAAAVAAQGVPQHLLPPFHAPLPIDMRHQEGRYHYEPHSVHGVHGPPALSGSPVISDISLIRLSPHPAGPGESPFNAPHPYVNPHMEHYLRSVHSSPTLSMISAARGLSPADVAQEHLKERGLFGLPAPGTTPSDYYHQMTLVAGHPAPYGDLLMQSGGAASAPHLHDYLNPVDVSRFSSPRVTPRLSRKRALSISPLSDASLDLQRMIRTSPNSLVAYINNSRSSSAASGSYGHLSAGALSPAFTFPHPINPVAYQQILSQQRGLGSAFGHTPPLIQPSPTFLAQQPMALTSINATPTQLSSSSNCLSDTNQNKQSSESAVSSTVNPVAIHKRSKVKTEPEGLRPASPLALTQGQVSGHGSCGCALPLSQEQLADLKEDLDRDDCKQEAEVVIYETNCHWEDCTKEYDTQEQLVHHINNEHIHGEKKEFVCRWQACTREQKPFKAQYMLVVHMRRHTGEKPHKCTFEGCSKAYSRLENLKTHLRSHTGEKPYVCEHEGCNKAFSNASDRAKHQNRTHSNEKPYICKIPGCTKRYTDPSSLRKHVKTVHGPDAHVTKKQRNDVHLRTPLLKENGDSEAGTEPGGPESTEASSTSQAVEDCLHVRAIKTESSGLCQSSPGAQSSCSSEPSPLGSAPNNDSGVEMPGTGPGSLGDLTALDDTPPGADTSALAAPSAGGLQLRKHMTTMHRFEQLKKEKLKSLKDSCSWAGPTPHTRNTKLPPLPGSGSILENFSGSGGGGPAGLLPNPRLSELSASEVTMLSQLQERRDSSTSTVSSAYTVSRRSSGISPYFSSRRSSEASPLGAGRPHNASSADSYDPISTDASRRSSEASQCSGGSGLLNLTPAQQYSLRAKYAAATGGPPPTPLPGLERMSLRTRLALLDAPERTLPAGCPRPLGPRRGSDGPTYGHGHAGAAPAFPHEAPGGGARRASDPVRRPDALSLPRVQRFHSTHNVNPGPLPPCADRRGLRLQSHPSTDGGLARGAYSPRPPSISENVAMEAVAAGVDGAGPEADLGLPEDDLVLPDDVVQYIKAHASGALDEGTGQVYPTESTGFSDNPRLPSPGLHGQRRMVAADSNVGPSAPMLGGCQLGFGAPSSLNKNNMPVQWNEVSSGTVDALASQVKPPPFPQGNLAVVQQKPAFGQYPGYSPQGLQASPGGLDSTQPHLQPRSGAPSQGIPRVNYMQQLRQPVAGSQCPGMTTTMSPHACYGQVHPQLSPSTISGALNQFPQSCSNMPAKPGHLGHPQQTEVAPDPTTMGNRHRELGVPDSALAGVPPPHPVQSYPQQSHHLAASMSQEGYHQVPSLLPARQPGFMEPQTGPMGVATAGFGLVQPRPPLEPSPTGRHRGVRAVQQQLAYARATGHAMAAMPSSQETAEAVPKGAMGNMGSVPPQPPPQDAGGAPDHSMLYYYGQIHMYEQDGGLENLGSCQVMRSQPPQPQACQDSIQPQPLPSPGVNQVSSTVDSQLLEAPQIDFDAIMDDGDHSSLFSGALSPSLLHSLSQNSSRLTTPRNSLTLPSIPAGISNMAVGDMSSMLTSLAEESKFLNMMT

Results are given in words; binding and its absence hold for the method and conditions named. In cells and extracts the contact can be indirect. Some binding calls cover weakened binding; strength is not graded here.

In this assay the target is cJUN (UniProt P05412). Kind of assay: co-IP; co-immunoprecipitation of cJUN and GLI2; cells not given; interaction in the nucleus; TGFβ stimulates the interaction.

As to GLI2 (from UniProt P10070 1-1586), the binding result was “binds”.
